Paper PMC9352719, “Interaction between transcribing RNA polymerase and topoisomerase I prevents R-loop formation in E. coli”

Assays:
[1] = target: T1, EcTopoI (topoisomerase I) (Escherichia coli DY330) (UniProt P06612); test: EMSA; conditions: 6 mM Mg2+, value assigned from figure text order; EMSA: 10 mM Tris-HCl pH 7.5, 50 mM NaCl, 6 mM MgCl2, 37 C 10 min; recombinant protein; label: 5'-Cy5; single-stranded DNA
T1 sequence (looked up, limits assumed): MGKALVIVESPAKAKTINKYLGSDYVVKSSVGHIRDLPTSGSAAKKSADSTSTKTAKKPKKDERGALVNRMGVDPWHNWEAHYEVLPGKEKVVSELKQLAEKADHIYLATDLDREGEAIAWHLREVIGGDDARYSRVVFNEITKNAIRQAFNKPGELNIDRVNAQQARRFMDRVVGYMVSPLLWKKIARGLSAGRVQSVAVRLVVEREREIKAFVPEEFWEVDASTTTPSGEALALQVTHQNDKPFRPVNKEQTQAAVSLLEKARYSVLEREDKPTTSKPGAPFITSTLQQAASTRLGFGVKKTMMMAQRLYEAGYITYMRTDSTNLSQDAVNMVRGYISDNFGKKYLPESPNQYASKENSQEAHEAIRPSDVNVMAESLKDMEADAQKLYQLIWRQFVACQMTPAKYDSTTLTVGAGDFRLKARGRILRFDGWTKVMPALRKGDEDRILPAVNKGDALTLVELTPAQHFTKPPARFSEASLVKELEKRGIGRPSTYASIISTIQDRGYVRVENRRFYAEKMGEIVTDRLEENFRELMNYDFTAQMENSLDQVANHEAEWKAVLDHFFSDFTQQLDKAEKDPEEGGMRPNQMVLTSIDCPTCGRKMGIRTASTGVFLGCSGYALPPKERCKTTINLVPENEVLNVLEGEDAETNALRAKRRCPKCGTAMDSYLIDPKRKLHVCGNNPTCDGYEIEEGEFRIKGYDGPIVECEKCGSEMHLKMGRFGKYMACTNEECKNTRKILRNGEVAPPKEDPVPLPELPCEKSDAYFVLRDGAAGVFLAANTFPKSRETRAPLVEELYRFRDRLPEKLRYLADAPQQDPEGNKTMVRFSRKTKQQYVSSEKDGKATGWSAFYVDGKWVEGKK

[2] = target: T1, EcTopoI (topoisomerase I) (Escherichia coli DY330); test: competition with a labelled probe; conditions: EMSA: 10 mM Tris-HCl pH 7.5, 50 mM NaCl, 6 mM MgCl2, 37 C 10 min, recombinant protein, single-stranded DNA
[3] = vs labeled control oligos, 50-90% dissociation at 1:1 for consensus oligos
[4] = vs labeled consensus, complex refractory up to 16-fold excess

Sequence	Kd [1] [nM]	binding result [2, 4]	other results
CGCAAAAAAAAAAAAAAAAAAAACGC [Poly-A]	223	–	–
CGCAAAAATAATGAAGAAAAAAACGC [Consensus R, unlabeled]	–	–	binding result [2, 3]: binds
CGCTCCGCACTGCGGATTACGTGCGC [Random R, unlabeled]	–	binds more weakly	–
CGCTCCGCACTGCGGATTACGTGCGC [Random R]	457	–	–
GCGCACGTAATCCGCAGTGCGGTGCG [Random F, unlabeled]	–	binds more weakly	–
GCGCACGTAATCCGCAGTGCGGTGCG [Random F]	357	–	–
GCGTTTTTTTCTTCATTATTTTTGCG [Consensus F, unlabeled]	–	–	binding result [2, 3]: binds
GCGTTTTTTTTTTTTTTTTTTTTGCG [Poly-T, unlabeled]	–	binds more weakly	–
GCGTTTTTTTTTTTTTTTTTTTTGCG [Poly-T]	290	–	–

For at least one entry, the source does not settle the construct or the ends of the probe. For part of these data: Weaker means in comparison with the reference protein, sequence or condition of that experiment. For part of these data: At least one verdict rests on a figure or table, not on a statement of the authors. Tags and fusion partners may be left off the protein sequences shown.
